# According to PubChem BioAssay AID720506 (National Center for Advancing Translational Sciences (NCATS), 2013):
# The chains behind the UniProt entries cited, without tags or fusion partners.
# UniProt P35462, whole entry, looked up: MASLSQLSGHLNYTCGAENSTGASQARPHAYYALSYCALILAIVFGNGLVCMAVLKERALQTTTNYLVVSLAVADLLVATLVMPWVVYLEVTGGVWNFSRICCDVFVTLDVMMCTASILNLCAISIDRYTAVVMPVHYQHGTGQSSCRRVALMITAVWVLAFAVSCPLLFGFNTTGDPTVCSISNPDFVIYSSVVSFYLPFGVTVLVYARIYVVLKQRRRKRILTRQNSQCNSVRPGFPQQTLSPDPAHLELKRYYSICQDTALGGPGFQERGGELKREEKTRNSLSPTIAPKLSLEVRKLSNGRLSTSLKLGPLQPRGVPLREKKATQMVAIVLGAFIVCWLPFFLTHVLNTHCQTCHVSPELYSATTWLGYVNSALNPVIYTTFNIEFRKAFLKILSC
# About 95 (4%) of roughly 2,300 compounds were called active. Roughly 17% stayed inconclusive and do not appear here. Calls follow the shape of the dose curve; as a rule, active = well fitted activation curve with a large enough effect; inconclusive = small, poorly fitted or top-dose-only effect; inactive = flat fitted curve, though single readings scatter. The list shows a part of the results, in another mix than the full data.
# Target: D(3) dopamine receptor (Homo sapiens) (UniProt P35462)
# Experiment: qHTS of D3 Dopamine Receptor Agonist: D3 Dopamine Receptor B-arrestin Agonist Confirmatory Assay;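 also: 100% = dopamine control response; nearly all actives have a fitted effect of over 70% in size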
# Settings: DiscoveRx D3 beta-arrestin cells, luminescence, 90 min; at 76.9 µM (top of the series)
# Text: D3 DARs represent a very important target for the treatment of several neuropsychiatric disorders. Indeed, one of the most promising therapeutic applications for the D3 DAR is in the area of addiction and related disorders. […] These findings have been observed with a number of addictive substances including cocaine, amphetamine, nicotine, and alcohol. […] Increased D3 DAR activity can thus lead to neuroprotective and neurorestorative actions in the CNS. […] This assay is used to confirm the activity of the identified D3 dopamine receptor agonist. Activation is the desired outcome for this assay. NIH Molecular Libraries Probe Production Centers Network [MLPCN] NIH Chemical Genomics Center [NCGC] MLPCN Grant: NS064831 Assay Submitter (PI): David Sibley
# Freshly passaged DiscoveRx D3 cells are plated in 1536 well white, solid bottom plates at a density of 1500 cells/well in 3microl of complete media. After an overnight incubation at 37 degrees C in 5% CO2, cells are loaded with 23nl of test compound from the compound library (as well as dopamine controls) using a 1536 pintool and incubated at 37 degrees C for 90 minutes. Two microliters of DiscoveRx reagent is then added to all cells, and they are incubated for an additional 30 - 60 minutes at room temperature. Following incubation, luminescence is measured on a ViewLux CCD-based luminometer reader using a 20 sec exposure time.
row,Structure (SMILES),activation
1,COC(=O)C1=C(c2ccc(-c3ccccc3)c(F)c2)C[C@@H]2CC[C@H]1N2C(=O)NCc1ccc(F)cc1,inactive: -3.75%
2,CCOC(=O)C1(Cc2ccc(Cl)cc2)CCN(C(C)CCn2cccn2)CC1 (configuration not stated),inactive: 22.7%
